No constants are given. Whether binding was seen depends on the method and setting. Some binding calls cover weakened binding; strength is not graded here.
B1: TP-3E1 (Fab, V domains shown)
VH: QVQLVESGGGLVQPGGSLRLSCAASGFTFSNYAMTWVRQAPGKGLEWVSVISSVGSNTYYADSVKGRFTISRDNSKNTLYLQMNSLRAEDTAVYYCARPTKAGRTWWWGPYMDVWGQGTLVTVSS
VL: DIELTQPPSVSVAPGQTARISCSGDNIGSYYAYWYQQKPGQAPVLVIYDDSNRPSGIPERFSGSNSGNTATLTISGTQAEDEADYYCQSYDSTGLLVFGGGTKLTVLG
B2: TP-3F1 (Fab, V domains shown)
VH: QVQLVQSGAEVKKPGESLKISCKGSGYSFTDYWIGWVRQMPGKGLEWMGIIQPSDSDTNYSPSFQGQVTISADKSISTAYLQWSSLKASDTAMYYCARFMWWGKYDSGFDVWGQGTLVTVSS
VL: DIELTQPPSVSVAPGQTARISCSGDNIGSYFASWYQQKPGQAPVLVIYDDSNRPSGIPERFSGSNSGNTATLTISGTQAEDEADYYCEGSNVFGGGTKLTVLG
B3: TP-3F2 (Fab, V domains shown)
VH: QVQLVESGGGLVQPGGSLRLSCAASGFTFSSYSMHWVRQAPGKGLEWVSGISYSSSFTYYADSVKGRFTISRDNSKNTLYLQMNSLRAEDTAVYYCARALGGGVDYWGQGTLVTVSS
VL: DIELTQPPSVSVAPGQTARISCSGDNLPSKSVYWYQQKPGQAPVLVIYGDNNRPSGIPERFSGSNSGNTATLTISGTQAEDEADYYCQSWTSRPMVVFGGGTKLTVLG
B4: TP-3G1 (Fab, V domains shown)
VH: QVQLQQSGPGLVKPSQTLSLTCAISGDSVSSNSGGWGWIRQSPGRGLEWLGLIYYRSKWYNAYAVSVKSRITINPDTSKNQFSLQLNSVTPEDTAVYYCARYLGSNFYVYSDVWGQGTLVTVSS
VL: DIQMTQSPSSLSASVGDRVTITCRASQGISSYLHWYQQKPGKAPKLLIYGASTLQSGVPSRFSGSGSGTDFTLTISSLQPEDFATYYCQQQNGYPFTFGQGTKVEIKR
B5: TP-3G3 (Fab, V domains shown)
VH: QVQLVESGGGLVQPGGSLRLSCAASGFTFSSYSMSWVRQAPGKGLEWVSSISSSSSNTYYGDSVKGRFTISRDNSKNTLYLQMNSLRAEDTAVYYCARMHYKGMDIWGQGTLVTVSS
VL: DIQMTQSPSSLSASVGDRVTITCRASQNIHSHLNWYQQKPGKAPKLLIYDASSLQSGVPSRFSGSGSGTDFTLTISSLQPEDFAVYYCQQYYDYPLTFGQGTKVEIKR
B6: TP-3H2 (Fab, V domains shown)
VH: QVQLVESGGGLVQPGGSLRLSCAASGFTFNSYYMSWVRQAPGKGLEWVSNISSSGSNTNYADSVKGRFTISRDNSKNTLYLQMNSLRAEDTAVYYCARVHYGFDFWGQGTLVTVSS
VL: DIELTQPPSVSVAPGQTARISCSGDKLGKYYAYWYQQKPGQAPVLVIYGDSKRPSGIPERFSGSNSGNTATLTISGTQAEDEADYYCSSAAFGSTVFGGGTKLTVLG
B7: TP-4A7 (Fab, V domains shown)
VH: QVQLVESGGGLVQPGGSLRLSCAASGFTFRNYAMNWVRQAPGKGLEWVSVISGSSSYTYYADSVKGRFTISRDNSKNTLYLQMNSLRAEDTAVYYCARADLPYMVFDYWGQGTLVTVSS
VL: DIELTQPPSVSVAPGQTARISCSGDALGSKFAHWYQQKPGQAPVLVIYDDSERPSGIPERFSGSNSGNTATLTISGTQAEDEADYYCQAYDSGLLYVFGGGTKLTVLG
B8: TP-4A9 (Fab, V domains shown)
VH: QVQLVESGGGLVQPGGSLRLSCAASGFTFSSYGMSWVRQAPGKGLEWVSLISGVSSSTYYADSVKGRFTISRDNSKNTLYLQMNSLRAEDTAVYYCARSYLGYFDVWGQGTLVTVSS
VL: DIELTQPPSVSVAPGQTARISCSGDALGKYYASWYQQKPGQAPVLVIYGDNKRPSGIPERFSGSNSGNTATLTISGTQAEDEADYYCQSYTTRSLVFGGGTKLTVLG
B9: TP-4E8 (Fab, V domains shown)
VH: QVQLVESGGGLVQPGGSLRLSCAASGFTFNDYAMSWVRQAPGKGLEWVSLIESVSSSTYYADSVKGRFTISRDNSKNTLYLQMNSLRAEDTAVYYCARTIGVLWDDVWGQGTLVTVSS
VL: DIELTQPPSVSVAPGQTARISCSGDALGSKYVSWYQQKPGQAPVLVIYGDNKRPSGIPERFSGSNSGNTATLTISGTQAEDEADYYCQSYTYSLNQVFGGGTKLTVLG
B10: TP-4G8 (Fab, V domains shown)
VH: QVQLVESGGGLVQPGGSLRLSCAASGFTFSTYAMHWVRQAPGKGLEWVSTISGYGSFTYYADSVKGRFTISRDNSKNTLYLQMNSLRAEDTAVYYCARNGRKYGQMDNWGQGTLVTVSS
VL: DIELTQPPSVSVAPGQTARISCSGDKLGSKSVHWYQQKPGQAPVLVIYRDTDRPSGIPERFSGSNSGNTATLTISGTQAEDEADYYCQTYDYILNVFGGGTKLTVLG
B11: TP-4H8 (Fab, V domains shown)
VH: QVQLVESGGGLVQPGGSLRLSCAASGFTFSDHAMHWVRQAPGKGLEWVSVIEYSGSKTNYADSVKGRFTISRDNSKNTLYLQMNSLRAEDTAVYYCARGDYYPYLVFAIWGQGTLVTVSS
VL: DIELTQPPSVSVAPGQTARISCSGDSIGKKYVHWYQQKPGQAPVLVIYGDNNRPSGIPERFSGSNSGNTATLTISGTQAEDEADYYCSTADSVITYKNVFGGGTKLTVLG
B12: TP-2A10 (Fab, V domains shown)
VH: QVQLVESGGGLVQPGGSLRLSCAASGFTFTSYSMNWVRQAPGKGLEWVSAISYTGSNTHYADSVKGRFTISRDNSKNTLYLQMNSLRAEDTAVYYCARAFLGYKESYFDIWGQGTLVTVSS
VL: DIELTQPPSVSVAPGQTARISCSGDKLGKKYVHWYQQKPGQAPVLVIYGDDKRPSGIPERFSGSNSGNTATLTISGTQAEDEADYYCQAWGSISRFVFGGGTKLTVLG
B13: TP-2B1 (Fab, V domains shown)
VH: QVQLVESGGGLVQPGGSLRLSCAASGFTFSSYSMSWVRQASGKGLEWVSSIKGSGSNTYYADSVKGRFTISRDNSKNTLYLQMNSLRAEDTAVYYCARNGGLIDVWGQGTLVTVSS
VL: DIELTQPPSVSVAPGQTARISCSGDNLGNKYAHWYQQKPGQAPVLVIYYDNKRPSGIPERFSGSNSGNTATLTISGTQAEDEADYYCQSWTPGSNTMVFGGGTRLTVLG
B14: TP-2B3 (Fab, V domains shown)
VH: QVQLQQSGPGLVKPSQTLSLTCAISGDSVSSNSAAWGWIRQSPGRGLEWLGMIYYRSKWYNSYAVSVKSRITINPDTSKNQFSLQLNSVTPEDTAVYYCARTMSKYGGPGMDVWGQGTLVTVSS
VL: DIVLTQSPATLSLSPGERATLSCRASQNIGSNYLAWYQQKPGQAPRLLIYGASTRATGVPARFNGSGSGTDFTLTISSLEPEDFAVYYCQQLNSIPVTFGQGTKVEIKR
B15: TP-2B4 (Fab, V domains shown)
VH: QVQLVESGGGLVQPGGSLRLSCAASGFTFSNYSMTWVRQAPGKGLEWVSGISYNGSNTYYADSVKGRFTISRDNSKNTLYLQMNSLRAEDTAVYYCARIYYMNLLAGWGQGTLVTVSS
VL: DIELTQPPSVSVAPGQTARISCSGDALGTYYAYWYQQKPGQAPVLVIYGDMNRPSGIPERFSGSNSGNTATLTISGTQAEDEADYYCQSYDAGVKPAVFGGGTKLTVLG
B16: TP-2B8 (Fab, V domains shown)
VH: QVQLVQSGAEVKKPGASVKVSCKASGYTFTGNSMHWVRQAPGQGLEWMGTIFPYDGTTKYAQKFQGRVTMTRDTSISTAYMELSSLRSEDTAVYYCARGVHSYFDYWGQGTLVTVSS
VL: DIELTQPPSVSVAPGQTARISCSGDNLRGYYASWYQQKPGQAPVLVIYEDNNRPSGIPERFSGSNSGNTATLTISGTQAEDEADYYCQSWDSPYVHVFGGGTKLTVLG

Protein sequences, listed by entry. Tags and fused reporters are not part of them. Residues count along the entry.
UniProt P10646, residues 29-304: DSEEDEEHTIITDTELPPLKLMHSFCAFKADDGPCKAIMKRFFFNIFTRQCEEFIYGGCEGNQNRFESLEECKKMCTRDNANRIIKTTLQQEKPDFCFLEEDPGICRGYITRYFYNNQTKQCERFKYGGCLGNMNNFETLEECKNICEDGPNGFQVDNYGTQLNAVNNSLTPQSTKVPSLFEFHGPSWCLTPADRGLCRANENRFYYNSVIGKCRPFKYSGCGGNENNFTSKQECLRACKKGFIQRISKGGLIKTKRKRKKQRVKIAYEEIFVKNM

target: ヒトTFPI(American Diagnostica) (human) (UniProt P10646); assay: ELISA screen of Fab lysates on coated human TFPI

binding, binds:
B1
B2
B3
B4
B5
B6
B7
B8
B9
B10
B11
B12
B13
B14
B15
B16
